# Results taken from US5567624A, “Carbazine dyes and derivatives for pH measurement” (Utah Medical Products, Inc., priority 1995, dated 1996).
# Experiment: Relative susceptibility of the dyes to immobilization on a solid support
# Conditions: relative scale of 1 to 10 where 10 is best (1 = no detectable amount of dye bound); 2% carbonate solution; Method 2
# Method: The relative susceptibilities of the dyes to immobilization on a solid support were determined from the intensity of dye covalently bound to regenerated cellulose dialysis membrane. The immobilization data summarized in the Table below were taken from measurements in 2% carbonate solution normalized to an arbitrary scale of 1 to 10, where 1 represents no detectable amount of dye bound and 10 represents the greatest quantity of dye bound. The conditions of coupling of the dyes to the regenerated cellulose were according to immobilization Method 2 described below. Carbazine dyes immobilized under these conditions yield a uniform fluorescent blue dialysis membrane that changes to fluorescent orange upon acidification. As a point of reference, the carbazine dye of Example 3 immobilized on a "SPECTRAPOR 1" membrane (molecular weight cutoff 6000 to 8000) yields a blue membrane with an absorbance at 660 nm of greater than 1 at pH>9.
row,Structure (SMILES),Immobilization
1,"O=C1C=CC2(C=C1)C1=CC(=O)C=CC1=Nc1ccc(O)cc12 [Example 1, 7-hydroxyspiro[acridine-9,1'-cyclohexa-2',5'-diene]-2(9H),4'-dione]",10
2,CC1=CC(=O)C=C(C)C12C1=CC(=O)C=CC1=Nc1ccc(O)cc12 [Example 2],6
3,CC1=CC(=O)C(C)=C(C)C12C1=CC(=O)C=CC1=Nc1ccc(O)cc12 (stereo not shown) [Example 3],6
4,"CC1=C(C)C2(C3=CC(=O)C=CC3=Nc3ccc(O)cc32)C(C)=C(C)C1=O [Example 4, 7-hydroxy-2',3',5',6'-tetramethylspiro[acridine-9,1'-cyclohexa-2', 5'-diene]-2(9H), 4'-dione]",4
5,O=C1C=CC2=Nc3ccc(O)cc3C3(C=CC(=O)C4=C3CCCC4)C2=C1 (stereo not shown) [Example 5],6
6,CC1=CC(=O)C=C(C(C)C)C12C1=CC(=O)C=CC1=Nc1ccc(O)cc12 (stereo not shown) [Example 6],6
7,CC(C)(C)C1=CC2(C=CC1=O)C1=CC(=O)C=CC1=Nc1ccc(O)cc12 (stereo not shown) [Example 7],1
